Measured values taken from PMC9450150.
Results are given in words; binding and its absence hold for the method and conditions named. Binding seen in cells or lysates may run through a third protein. Some results given as binding are weak or reduced against the parent protein; the word gives no strength.

By UniProt entry, the sequences of proteins in these tests, tags left out. Where a name states a change or a piece, a line headed by the entry shows the natural chain unless it says otherwise. Chains listed by the source or under a name are the forms on record and can include a tag or linker.
UniProt Q9HC97: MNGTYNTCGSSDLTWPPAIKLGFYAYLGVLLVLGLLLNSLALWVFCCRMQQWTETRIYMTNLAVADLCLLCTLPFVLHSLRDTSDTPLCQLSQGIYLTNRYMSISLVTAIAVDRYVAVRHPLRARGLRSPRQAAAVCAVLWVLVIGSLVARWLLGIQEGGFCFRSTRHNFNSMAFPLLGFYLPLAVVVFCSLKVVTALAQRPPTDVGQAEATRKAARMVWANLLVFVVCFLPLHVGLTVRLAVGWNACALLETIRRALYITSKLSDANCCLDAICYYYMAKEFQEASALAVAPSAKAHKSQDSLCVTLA
N-terminally FLAG-tagged GPR35 long (Q9HC97, form named): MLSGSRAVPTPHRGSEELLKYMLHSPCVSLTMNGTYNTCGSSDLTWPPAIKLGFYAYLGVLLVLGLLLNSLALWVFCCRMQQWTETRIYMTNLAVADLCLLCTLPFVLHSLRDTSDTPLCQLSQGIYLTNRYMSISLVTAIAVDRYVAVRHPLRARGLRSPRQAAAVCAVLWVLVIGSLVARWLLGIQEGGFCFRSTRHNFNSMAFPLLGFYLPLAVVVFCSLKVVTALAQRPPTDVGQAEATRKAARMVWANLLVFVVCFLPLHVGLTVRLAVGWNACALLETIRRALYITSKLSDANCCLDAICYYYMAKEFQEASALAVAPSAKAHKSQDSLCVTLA
GPR35 long Cys27Ser (Q9HC97, form named): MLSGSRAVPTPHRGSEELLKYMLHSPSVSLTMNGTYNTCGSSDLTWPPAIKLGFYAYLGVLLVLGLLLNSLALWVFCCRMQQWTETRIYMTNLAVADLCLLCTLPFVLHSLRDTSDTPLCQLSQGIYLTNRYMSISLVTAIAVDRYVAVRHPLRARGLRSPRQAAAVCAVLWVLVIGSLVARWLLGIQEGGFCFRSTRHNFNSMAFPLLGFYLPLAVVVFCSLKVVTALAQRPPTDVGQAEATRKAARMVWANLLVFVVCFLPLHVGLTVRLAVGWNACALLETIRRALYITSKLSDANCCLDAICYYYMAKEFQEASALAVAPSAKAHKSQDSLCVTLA
UniProt P49407: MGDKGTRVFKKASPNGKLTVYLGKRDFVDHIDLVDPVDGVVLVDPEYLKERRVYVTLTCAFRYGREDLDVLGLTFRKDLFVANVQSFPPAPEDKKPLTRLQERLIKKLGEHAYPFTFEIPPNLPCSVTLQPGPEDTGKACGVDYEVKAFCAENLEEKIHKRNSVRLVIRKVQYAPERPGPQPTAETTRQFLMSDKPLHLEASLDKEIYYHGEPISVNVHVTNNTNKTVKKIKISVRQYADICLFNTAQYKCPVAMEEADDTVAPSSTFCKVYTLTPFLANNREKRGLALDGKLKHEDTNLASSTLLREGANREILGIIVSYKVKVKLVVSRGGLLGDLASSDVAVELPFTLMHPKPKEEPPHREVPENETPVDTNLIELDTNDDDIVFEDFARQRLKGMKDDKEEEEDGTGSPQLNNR

What was measured:
[1] = target: C-terminally Nluc-tagged GPR35 long (human) (UniProt Q9HC97); assay: FRET or BRET; intermolecular BRET in living HEK293A cells between C-terminally Nluc-tagged GPR35 and HaloTag-β-arrestin1/2 labelled with NanoBRET 618; stimulation with kynurenic acid; HBSS, 37 °C
[2] = target: C-terminally Nluc-tagged GPR35 short (human) (UniProt Q9HC97); assay: as above
[3] = target: C-terminally Nluc-tagged GPR35 long (human) (UniProt Q9HC97); assay: FRET or BRET; intermolecular BRET in living HEK293A cells between C-terminally Nluc-tagged GPCR and HaloTag-β-arrestin1/2 labelled with NanoBRET 618; stimulation with pamoic acid or zaprinast (GPR35) or isoprenaline (β2AR); HBSS, 37 °C
[4] = target: C-terminally Nluc-tagged GPR35 short (human) (UniProt Q9HC97); assay: as above
[5] = target: GPR35 long Cys27Ser (human) (UniProt Q9HC97); assay: FRET or BRET; β-arrestin2 recruitment to unlabeled GPR35 constructs in living HEK293A cells: Nluc-β-arrestin2 and membrane-anchored HaloTag (bystander BRET); stimulation with pamoic acid; HBSS, 37 °C
[6] = target: N-terminally FLAG-tagged GPR35 long (human) (UniProt Q9HC97); assay: as above
[7] = target: N-terminally FLAG-tagged GPR35 short (human) (UniProt Q9HC97); assay: as above

Substance	binding [1]	binding [2]	binding [3]	binding [4]	binding [5]	binding [6]	binding [7]
HaloTag-β-arrestin1 (from UniProt P49407 1-418)	no binding (condition: with kynurenic acid as the agonist)	no binding (condition: with kynurenic acid as the agonist)	binds	binds	–	–	–
HaloTag-β-arrestin2 (from UniProt P32121 1-409)	no binding (condition: with kynurenic acid as the agonist)	no binding (condition: with kynurenic acid as the agonist)	binds	binds	–	–	–
Nluc-β-arrestin2 (from UniProt P32121 1-409)	–	–	–	–	binds	binds	binds
